Laboratory results reported in patent US6352998B2, “Pharmaceutical compositions” (Novartis AG, priority 1997, dated 2002).
At least one compound was matched to its structure with a doubt left.

Tested on: chronic plaque psoriasis
Test: Topical treatment of chronic plaque psoriasis in humans, once a day
Format: in vivo
Settings: topical application of 0.01 to 1% w/w once a day

C=CC[C@@H]1/C=C(\C)C[C@H](C)C[C@H](OC)[C@H]2O[C@@](O)(C(=O)C(=O)N3CCCC[C@H]3C(=O)O[C@H](/C(C)=C/[C@@H]3CC[C@@H](O)[C@H](OC)C3)[C@H](C)[C@@H](O)CC1=O)[C@H](C)C[C@@H]2OC (relative stereo) [Compound 1, [3S-[3R*[E(1S*,3S*,4S*)],4S*,5R*,8S*,9E,12R*,14R*,15S*,16R*,18S*,19S*,26aR*]]-5,6,8,11,12,13,14,15,16,17,18,19,24,25,26,26a-hexadecahydro-5,19-dihydroxy-3-[2-(4-hydroxy-3-methoxy-cyclohexyl)-1-methylethenyl)]-14,16-dimethoxy-4,10,12,18,-tetramethyl-8-(2-propenyl)-15,19-epoxy-3H-pyrido[2,1-c][1,4]oxaazacyclotricosine-1,7,20,21(4H,23H)-tetrone] was tested, and the “Efficacy in the treatment of chronic plaque psoriasis” value was “effective”.
